# Primary screen of a compound library

By UniProt entry, the sequences of proteins in these tests, tags left out. Residues count along the entry.
UniProt Q8IDJ8, 1-583: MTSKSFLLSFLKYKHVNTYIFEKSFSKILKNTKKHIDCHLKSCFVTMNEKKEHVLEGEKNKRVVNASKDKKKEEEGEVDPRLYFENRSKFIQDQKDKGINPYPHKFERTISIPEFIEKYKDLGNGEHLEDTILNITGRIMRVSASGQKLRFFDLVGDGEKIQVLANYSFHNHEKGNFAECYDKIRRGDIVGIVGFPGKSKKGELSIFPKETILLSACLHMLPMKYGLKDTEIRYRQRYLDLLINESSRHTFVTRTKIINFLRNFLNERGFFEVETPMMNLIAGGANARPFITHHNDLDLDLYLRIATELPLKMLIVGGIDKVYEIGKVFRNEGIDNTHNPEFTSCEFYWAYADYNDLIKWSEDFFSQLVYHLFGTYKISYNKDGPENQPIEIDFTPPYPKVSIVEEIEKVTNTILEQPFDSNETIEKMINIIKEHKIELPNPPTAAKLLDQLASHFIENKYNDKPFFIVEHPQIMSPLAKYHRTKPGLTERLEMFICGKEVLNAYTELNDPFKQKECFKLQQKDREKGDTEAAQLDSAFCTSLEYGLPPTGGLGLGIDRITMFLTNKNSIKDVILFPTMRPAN

From ChEMBL document CHEMBL3988442, “University of Dundee, Small-Polar-MMV Screening Library” (2021).

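Lysine-tRNA ligase, Plasmodium falciparum 3D7 (UniProt Q8IDJ8). Enzyme assay of the cytosolic lysyl-tRNA synthetase in 384-well plates, read by luminescence. Concentration: 30 µM. Higher reads as stronger inhibition, judged from the few compounds that gave an IC50. Of about 69,000 compounds tested this way, about 49 (0.071%) reached 50% or more in at least one test.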

Values are the deposited “Percent Effect”, in %. The record does not define 0% and 100%; most values in the screen are far below 50% and negative numbers occur (in some assays of this library far below -100). The compounds are a random part of those screened.

SMILES,percent effect
CN(C)c1ncc2c(n1)C1(CCN(Cc3cccnc3)C1)COC2 (stereo unspecified),4.582
CN1CCN(c2cnn(Cc3ccc(S(C)(=O)=O)cc3)c(=O)c2)CC1,1.648
COC(=O)c1cnn(-c2cc(Oc3cccc(C)c3)ncn2)c1N,3.616
CN(C)CC1(O)CCCN(Cc2cnc(-c3ccco3)nc2)CC1 (stereo unspecified),3.485
Cc1cc(C)c2[nH]c(C)c(CC(=O)N(C)CCN(C)C)c2c1,1.027
Cc1cnn(CC(=O)N2CCCN(Cc3cnn(C(C)C)c3)CC2)c1,-1.287
Cc1oc(-c2ccoc2)nc1CN1CCCCC1CCc1ccccc1 (stereo unspecified),1.017
Cc1nc[nH]c1-c1nccn1CCN(C)S(C)(=O)=O,7.837
COC[C@@H]1CCC[C@]12CN(Cc1cccc(C)n1)CCO2,0.1983
COCCC1COC2(CCN(C(=O)c3ccncc3)CC2)C1 (stereo unspecified),2.194
CC(C)COc1cncc(NC(CO)c2ccco2)n1 (stereo unspecified),-3.011
COc1c(C)cnc(CN(C)C(=O)c2ccccc2F)c1C,21.71
NS(=O)(=O)N1CCC(C(=O)Nc2cccc(OC(F)F)c2)CC1,3.622
Cc1nc(C)n(CC2CCCN(Cc3nc(-c4ccco4)no3)C2)n1 (stereo unspecified),0.9835
COc1ccc(NC(=O)c2nc3ccccc3n(C)c2=O)c(OC)c1,-2.965
Cn1cc(CN2CC[C@@H]3[C@@H]2CCN3Cc2ccc3c(c2)OCO3)cn1,4.589
CC(C)NC(=O)CC1COC2(CCN(Cc3cccnc3)CC2)C1 (stereo unspecified),-0.3525
O=C(Cc1ccsc1)N1C[C@H]2CCC[C@@]2(COCc2ccccn2)C1,-1.87
COCCN(CC(C)C)C(=O)c1cccc(Nc2cnccn2)c1,2.979
CCS(=O)(=O)N1CC[C@H]2[C@H]1CC(=O)N2Cc1csc(C)n1,4.738
O=C(Nc1cccnc1-n1cc(Cl)cn1)C1CCCC1,5.092
c1cc(-c2nn3c(CN4CCOCC4)nnc3s2)ccn1,4.222
CS(=O)(=O)NCCC1CCCCN1C(=O)NCCc1ccccn1 (stereo unspecified),3.945
CNC(=O)C1CCCCN1C(=O)c1csc(-c2ccccc2)n1 (stereo unspecified),4.638
COCCC(=O)N1CCN(CC(C)C)c2nc(C)ccc2C1,7.463
O=C(c1ccc(-c2cccs2)cc1F)N1CCN(CCO)CC1,3.376
CCS(=O)(=O)N[C@H]1CN(CC(C)(C)N2CCOCC2)C[C@@H]1C1CC1,0.1303
CCNC(c1ccc(OC)cc1)c1cccnc1 (stereo unspecified),-3.774
CC(C)NC(=O)N1CCC2(CC1)COc1ccccc1S(=O)(=O)N(C)C2,1.366
CCc1nccn1-c1nccnc1C1CCCN(C(=O)COC)C1 (stereo unspecified),-1.55
CC(C)n1cnc2c1C(C(=O)N1CCCC1)N(CC1CC1)CC2 (stereo unspecified),6.983
CCCn1cnnc1CNC(=O)C1COc2ccc(OC)cc2C1 (stereo unspecified),-6.759
CCC(C(=O)NCc1cc(N2CCOCC2)ncn1)n1cccn1 (stereo unspecified),3.624
Cc1nc(CSCCC(=O)NCC(=O)NC(C)C)cs1,3.504
CCN(Cc1ccccc1O)CC1(C)Cc2c(N)nc(N)nc2O1 (stereo unspecified),1.053
O=C(O)c1nnn(-c2ccc(Cl)c(C(F)(F)F)c2)c1-c1ccncc1,3.613
COc1ccc(C2CCCN2C(=O)CCNc2ncccn2)cc1 (stereo unspecified),0.05796
Cc1cnn(CCNCC(=O)NCCOc2ccc(F)cc2)c1,2.223
COCc1nc2n(n1)CCCC2Nc1nc(C2CC2)ns1 (stereo unspecified),0.7119
Cc1cccc(CN2CC3(CCN(C(=O)N(C)C)CC3)OCC2=O)n1,0.1389
COc1ccc(CC2CN(Cc3cncn3C)CCO2)cc1 (stereo unspecified),0.7439
O=C(CCn1ccc(=O)[nH]c1=O)N1CCC(Oc2ccccn2)CC1,9.767
COC(=O)C1CCCN1Cc1ccco1 (stereo unspecified),3.908
COC1CC2(CCN(Cc3ccc4c(c3)OCO4)CC2)C1,2.831
COC(=O)c1ccc(S(=O)(=O)N2CCC(Oc3cccnn3)CC2)cc1,5.083
Cc1ccc(CNC(C)c2ccc(N3CCN(C)CC3)c(F)c2)o1 (stereo unspecified),10.75
O=C(c1cc(C2CC2)on1)N1C[C@H]2CC[C@](O)(c3ccccc3F)[C@H]2C1,1.203
CCc1noc(CSc2n[nH]c(-c3ccccn3)n2)n1,4.932
CC1Cc2ccccc2N1C(=O)Cn1nc(-c2cccs2)cc(N)c1=O (stereo unspecified),3.082
Cc1cnc(C(NC(=O)NCC2(CO)CC2)C2CC2)s1 (stereo unspecified),-1.222
Cc1ccc(S(N)(=O)=O)cc1C(=O)NC1CCN(C2CC2)CC1,-3.177
O=C(Nc1ccccc1)C1CN(Cc2cccs2)CC12CCOCC2 (stereo unspecified),3.195
Cc1ccc(CN(C)Cc2nc3c(cnn3C)c(=O)[nH]2)c(C)c1,-8.433
CN1CCN(C(=O)N2CC[C@@](O)(c3ccccc3)[C@H]3CCCC[C@@H]32)CC1,2.303
COC(=O)N1CCCC(C(=O)NCc2cc3cccc(OC)c3o2)C1 (stereo unspecified),10.13
O=C(C1CCOCC1)N1C[C@H]2CCC[C@@]2(COc2cccnc2)C1,4.959
CC1CCN(Cc2cc(=O)[nH]c(=O)[nH]2)CC1,0.6128
CC1(C(=O)NCc2cc(F)cc(F)c2)CCOCC1,3.922
C1CC(c2noc(C3CC3)n2)N(Cc2nc(C3CC3)no2)C1 (stereo unspecified),3.197
Cc1ccc2[nH]c(CN(C)c3cc(CN)nc(C)n3)nc2c1,0.8404
Cc1nc(CNC(=O)c2oc3ccccc3c2CN(C)C)oc1C,-2.315
CN(Cc1cn2c(n1)CN(C1CCOC1)CC2)Cc1ccco1 (stereo unspecified),2.61
CN(Cc1ccccc1)c1ncccc1CNC1CCSCC1,2.254
Cn1cc(NC(=O)C2CC(c3ccccc3)C2)ccc1=O (stereo unspecified),3.581
CC(Oc1ccc(F)c(F)c1)C(=O)N(CC(N)=O)C1CCCC1 (stereo unspecified),0.5867
CC(C)NC(=O)C1CCc2nnc(CNC(=O)c3cccnc3)n21 (stereo unspecified),-1.517
O=C1CCSCC(C(=O)N2CCC3(CC2)OCCO3)N1 (stereo unspecified),5.776
CCOc1cccc(NC(=O)c2cnc(C)cn2)n1,4.798
COc1ccc(-c2ccc(C3CNCCO3)nc2)cc1 (stereo unspecified),4.939
COc1cc(CCC(=O)NC(C)C)ccc1OCC(F)(F)F,0.8996

The first 4 entries again:

{"smiles": "CN(C)c1ncc2c(n1)C1(CCN(Cc3cccnc3)C1)COC2", "stereo": "stereo unspecified", "percent effect": 4.582}
{"smiles": "CN1CCN(c2cnn(Cc3ccc(S(C)(=O)=O)cc3)c(=O)c2)CC1", "percent effect": 1.648}
{"smiles": "COC(=O)c1cnn(-c2cc(Oc3cccc(C)c3)ncn2)c1N", "percent effect": 3.616}
{"smiles": "CN(C)CC1(O)CCCN(Cc2cnc(-c3ccco3)nc2)CC1", "stereo": "stereo unspecified", "percent effect": 3.485}